Residue numbers refer to the chain shown, from its start. In names and notes the source's numbering stands. These are yes or no findings as the source states them, for the method shown. Some entries that bind do so weakly or less than the wild type. Each block holds one molecule with its values, some of them ahead of it.
Biological target: Xenopus laevis condensin I subunit CAP-C, 3xFLAG-tagged (X. laevis) (UniProt P50532)
Assay: tandem affinity co-purification

By UniProt entry, the sequences of proteins in these tests, tags left out. Where a name states a change or a piece, a line headed by the entry shows the natural chain unless it says otherwise.
UniProt P50532: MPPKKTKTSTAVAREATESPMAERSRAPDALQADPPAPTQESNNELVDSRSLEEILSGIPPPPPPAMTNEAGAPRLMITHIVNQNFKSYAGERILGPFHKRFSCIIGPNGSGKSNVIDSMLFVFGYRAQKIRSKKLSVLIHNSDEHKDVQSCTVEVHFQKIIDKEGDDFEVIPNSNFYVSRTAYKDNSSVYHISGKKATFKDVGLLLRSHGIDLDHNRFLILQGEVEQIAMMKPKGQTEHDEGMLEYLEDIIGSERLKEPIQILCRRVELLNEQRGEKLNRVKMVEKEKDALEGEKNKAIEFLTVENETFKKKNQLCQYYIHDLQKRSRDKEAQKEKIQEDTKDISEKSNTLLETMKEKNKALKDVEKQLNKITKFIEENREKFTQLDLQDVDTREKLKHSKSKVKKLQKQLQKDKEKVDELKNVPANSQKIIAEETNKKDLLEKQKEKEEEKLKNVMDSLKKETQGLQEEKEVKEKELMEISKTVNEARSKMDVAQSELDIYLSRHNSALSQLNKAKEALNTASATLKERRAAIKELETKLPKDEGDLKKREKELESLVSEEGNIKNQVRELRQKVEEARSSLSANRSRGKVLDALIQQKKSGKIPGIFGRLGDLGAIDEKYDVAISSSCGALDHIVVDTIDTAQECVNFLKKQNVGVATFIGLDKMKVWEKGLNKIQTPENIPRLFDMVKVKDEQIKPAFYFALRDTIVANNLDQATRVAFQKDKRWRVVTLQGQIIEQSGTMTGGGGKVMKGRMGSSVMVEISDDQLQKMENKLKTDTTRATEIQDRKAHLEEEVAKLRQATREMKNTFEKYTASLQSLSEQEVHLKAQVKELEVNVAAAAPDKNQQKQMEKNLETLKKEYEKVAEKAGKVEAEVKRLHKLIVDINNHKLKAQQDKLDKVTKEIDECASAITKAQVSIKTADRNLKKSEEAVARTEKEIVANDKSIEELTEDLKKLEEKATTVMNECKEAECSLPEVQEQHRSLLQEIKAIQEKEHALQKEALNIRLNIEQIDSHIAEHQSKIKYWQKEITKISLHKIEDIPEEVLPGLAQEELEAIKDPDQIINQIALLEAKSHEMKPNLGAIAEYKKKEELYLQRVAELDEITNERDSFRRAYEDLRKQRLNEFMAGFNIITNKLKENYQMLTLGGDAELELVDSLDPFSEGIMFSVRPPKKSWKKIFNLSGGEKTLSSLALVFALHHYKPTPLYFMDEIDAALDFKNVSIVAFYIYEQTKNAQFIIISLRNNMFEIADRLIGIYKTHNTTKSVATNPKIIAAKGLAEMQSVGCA
UniProt Q9YHY6: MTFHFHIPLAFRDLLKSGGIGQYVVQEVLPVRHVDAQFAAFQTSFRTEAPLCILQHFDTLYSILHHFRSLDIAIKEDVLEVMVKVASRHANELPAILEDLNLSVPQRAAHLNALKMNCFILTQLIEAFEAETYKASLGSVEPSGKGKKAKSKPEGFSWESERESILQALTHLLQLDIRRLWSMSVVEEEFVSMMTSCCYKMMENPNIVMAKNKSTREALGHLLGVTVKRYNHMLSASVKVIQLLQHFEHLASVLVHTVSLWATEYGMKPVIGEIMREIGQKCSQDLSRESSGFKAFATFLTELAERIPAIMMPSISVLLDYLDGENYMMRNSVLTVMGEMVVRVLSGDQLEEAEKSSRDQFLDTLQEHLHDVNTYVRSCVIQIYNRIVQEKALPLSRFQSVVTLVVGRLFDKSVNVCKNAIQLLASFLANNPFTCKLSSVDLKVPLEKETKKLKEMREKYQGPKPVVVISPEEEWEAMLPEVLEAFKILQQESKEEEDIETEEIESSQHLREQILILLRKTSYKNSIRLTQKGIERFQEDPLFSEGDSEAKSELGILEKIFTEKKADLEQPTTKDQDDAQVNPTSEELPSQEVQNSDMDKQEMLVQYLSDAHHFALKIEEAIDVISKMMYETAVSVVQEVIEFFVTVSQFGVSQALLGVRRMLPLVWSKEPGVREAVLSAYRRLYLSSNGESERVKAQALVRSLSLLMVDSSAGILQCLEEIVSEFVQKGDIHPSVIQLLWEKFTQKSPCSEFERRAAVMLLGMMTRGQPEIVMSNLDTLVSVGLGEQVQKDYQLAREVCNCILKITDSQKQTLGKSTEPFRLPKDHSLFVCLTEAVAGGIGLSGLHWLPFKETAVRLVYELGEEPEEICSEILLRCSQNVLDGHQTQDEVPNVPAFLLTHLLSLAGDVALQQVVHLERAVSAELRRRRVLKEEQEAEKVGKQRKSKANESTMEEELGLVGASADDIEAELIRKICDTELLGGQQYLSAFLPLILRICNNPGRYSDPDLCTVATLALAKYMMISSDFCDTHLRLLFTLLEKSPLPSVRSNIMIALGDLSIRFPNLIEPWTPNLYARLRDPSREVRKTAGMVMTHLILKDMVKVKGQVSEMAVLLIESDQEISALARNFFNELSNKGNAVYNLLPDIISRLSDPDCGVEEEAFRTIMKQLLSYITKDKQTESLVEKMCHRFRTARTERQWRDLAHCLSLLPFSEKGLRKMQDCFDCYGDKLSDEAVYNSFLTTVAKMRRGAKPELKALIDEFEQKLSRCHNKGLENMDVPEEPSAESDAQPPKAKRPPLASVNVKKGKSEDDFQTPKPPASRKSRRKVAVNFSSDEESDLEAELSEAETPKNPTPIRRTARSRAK
UniProt P50533: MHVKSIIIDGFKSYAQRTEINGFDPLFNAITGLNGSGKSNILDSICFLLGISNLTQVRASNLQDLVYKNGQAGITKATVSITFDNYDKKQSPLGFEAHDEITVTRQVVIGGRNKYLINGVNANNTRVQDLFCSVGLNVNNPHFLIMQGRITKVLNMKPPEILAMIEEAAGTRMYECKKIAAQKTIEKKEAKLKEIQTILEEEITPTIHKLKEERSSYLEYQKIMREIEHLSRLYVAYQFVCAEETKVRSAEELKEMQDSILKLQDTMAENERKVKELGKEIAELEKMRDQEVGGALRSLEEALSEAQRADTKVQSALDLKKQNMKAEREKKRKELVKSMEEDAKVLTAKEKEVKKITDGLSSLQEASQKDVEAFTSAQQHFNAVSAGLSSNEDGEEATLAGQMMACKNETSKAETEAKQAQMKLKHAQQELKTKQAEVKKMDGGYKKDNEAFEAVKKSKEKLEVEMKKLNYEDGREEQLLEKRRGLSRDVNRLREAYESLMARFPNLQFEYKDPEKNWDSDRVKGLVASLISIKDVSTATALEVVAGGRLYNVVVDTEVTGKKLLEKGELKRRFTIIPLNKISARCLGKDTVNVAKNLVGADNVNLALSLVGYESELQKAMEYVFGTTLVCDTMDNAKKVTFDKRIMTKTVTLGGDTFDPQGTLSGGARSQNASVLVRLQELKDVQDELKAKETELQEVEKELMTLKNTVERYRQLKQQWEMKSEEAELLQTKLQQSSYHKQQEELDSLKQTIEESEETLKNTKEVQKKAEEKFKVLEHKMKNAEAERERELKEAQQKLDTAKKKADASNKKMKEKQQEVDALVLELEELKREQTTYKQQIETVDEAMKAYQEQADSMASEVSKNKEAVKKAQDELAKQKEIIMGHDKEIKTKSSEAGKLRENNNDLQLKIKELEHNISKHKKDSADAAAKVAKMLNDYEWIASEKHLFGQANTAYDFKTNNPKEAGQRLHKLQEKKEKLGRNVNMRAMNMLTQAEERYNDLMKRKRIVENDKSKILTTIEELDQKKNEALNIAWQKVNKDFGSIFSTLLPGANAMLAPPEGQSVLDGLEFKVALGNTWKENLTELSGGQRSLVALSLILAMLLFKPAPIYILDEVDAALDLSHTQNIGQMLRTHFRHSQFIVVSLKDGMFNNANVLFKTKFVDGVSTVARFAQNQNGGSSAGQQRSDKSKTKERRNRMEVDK

Molecule: Xenopus laevis condensin I subunit CAP-D2, full-length (from UniProt Q9YHY6 1-1364)
binding: binds

B2: Xenopus laevis CAP-H lacking the N-terminal 85 amino acids (CAP-H_ΔNt85) (domain or fragment, UniProt O13067 86-699)
chain: TSLLPKLNNTQISDHYSTCIKLSQENKITTKNAFGLHLIDYMGDILKHKDSELTNFKVAAGTLDASAKIYAVRVDAVHADVYKVLGGLGKESQATEDTENQETDTGPQDGRKNPKRRKCSYKTIERNLNSINRSETERKSEIDPLFQKAAASFDEFSTAGVFLSTLKCHSYHSELHFDADVKPLSTAEETEPPSPGSMDSTELKSLFLQCVEKRPLCPSLSGFRFMQWNSDAQNENLSLLMDKFKKSDHVFDINAEVEDDFVESEAPVADEFDADVCEGMDAGDIGEFAEHREACRLERKGAQLTQIGNGDIGTMCLQLSSCPGEYSYFSPRTMSMWAGPEHWRFRPRQKASTDSDQQRVKKAKKVFELNFEDDIDFEVHFRKTRAATTLTKSTLESQNKKSTTLPADFHYDPDNIARMSLRPKDRIRKTTVQESVSEPEDDIGDYDYNNPNDTSNFCPALQAADSDDDDGAFLGPESNSAGFSAENQMNITSYGESNLVAGQKVNKIEIQYAKTAKKMDMKRLKSSMWSLLANCPESQEEMPSSKEEIDAALITDEQVFSSVTHGLQKRLPPVMAQNLSVPLAFACLLHLANEKNLKLQGMDDLSDVMIMQDD
binding: binds

B3: Xenopus laevis CAP-H lacking the N-terminal 85 amino acids, S415A (domain or fragment, UniProt O13067 86-699)
chain: B2 chain with S330A
binding: binds

B4: Xenopus laevis CAP-G lacking the C-terminal 101 amino acids (CAP-G_ΔCt101) (domain or fragment, UniProt Q9YHB5 1-933)
chain: MVKEGKAMEIKEAFDLSQKAHQNHAKLVSSLRAAYNKTEDKSIFLEEFIHFLKFPLIVYRREPAVERVMDFVAKFVTSFHNSGGENEEEADEENSPVNCLFNFLLQSHGASSMAVRFRVCQLINKLLVNLPENAQIDDDLFDKIHDAMLIRLKDRVPNVRIQAVLALARLQDPSDPDCPVSNAYVHLLENDSNPEVRRAVLTCIAPSAKSLPKIVGRTMDVKEPVRKLAYQVLSEKVHIRALTIAQRVKLLQQGLNDRSAAVKDVIQKKLIQAWLQYSEGDVLDLLHRLDVENSPEVSLSALNALFSVSPVGELVQNCKNLDERKLIPVETLTPENVLYWRALCEHLKSKGDEGEAALENILPEPAVYARYLSSYLQTLPVLSEDQRADMTKIEDLMTKEFIGQQLILTIGCLDTSEEGGRKRLLAVLQEILVMQNTPTSLISSLAELLLFVLKDDDKRIQTVAEIISELREPIVTVDNPKDAAQSRKLQLKLADVKVQLIEAKQALEDSLTNEDYSRASELKEKVKELESLKTQLIKEAEEPEMKEIRVEKNDPETLLKCLIMCNELLKHLSLSKGLGGTLNEICESLILPGITNVHPSVRNMAVLCIGCCALQNKDFARQHLPLLLQILQLDEVKVKNSALNAVFDMLLLFGMDILKSKPTNPDDSQCKAQENADEDISEQEKPGSVDENLTNEEVQEETATVNGILHLFSGFLDSEIAEIRTETAEGLVKLMFSGRLISAKLLSRLILLWYNPVTEEDTKLRHCLGVFFPIFAYSCRSNQECFAEAFLPTLQTLFNAPASSPLADVDVANVAELLVDLTRPSGLNPQNKQSQDYQAAMVHDGLAIKICNEILKDPTAPDVRIYAKALCSLELSRENSTDLLPLLDCAVEDVTDKVCERAIEKVRSQLRSGREEHRVSKETEPQVSKETED
binding: binds

Other lines, results leading:

binding: binds
Molecule: Xenopus laevis condensin I subunit CAP-E, GST-tagged (from UniProt P50533 1-1203)

binding: binds
Molecule: Xenopus laevis CAP-D2 lacking the C-terminal 80 amino acids (CAP-D2_ΔCt80) (from UniProt Q9YHY6 1-1284) (domain or fragment)

binding: binds
B1: Xenopus laevis condensin I subunit CAP-G, full-length (protein, UniProt Q9YHB5 1-1034)
chain: MVKEGKAMEIKEAFDLSQKAHQNHAKLVSSLRAAYNKTEDKSIFLEEFIHFLKFPLIVYRREPAVERVMDFVAKFVTSFHNSGGENEEEADEENSPVNCLFNFLLQSHGASSMAVRFRVCQLINKLLVNLPENAQIDDDLFDKIHDAMLIRLKDRVPNVRIQAVLALARLQDPSDPDCPVSNAYVHLLENDSNPEVRRAVLTCIAPSAKSLPKIVGRTMDVKEPVRKLAYQVLSEKVHIRALTIAQRVKLLQQGLNDRSAAVKDVIQKKLIQAWLQYSEGDVLDLLHRLDVENSPEVSLSALNALFSVSPVGELVQNCKNLDERKLIPVETLTPENVLYWRALCEHLKSKGDEGEAALENILPEPAVYARYLSSYLQTLPVLSEDQRADMTKIEDLMTKEFIGQQLILTIGCLDTSEEGGRKRLLAVLQEILVMQNTPTSLISSLAELLLFVLKDDDKRIQTVAEIISELREPIVTVDNPKDAAQSRKLQLKLADVKVQLIEAKQALEDSLTNEDYSRASELKEKVKELESLKTQLIKEAEEPEMKEIRVEKNDPETLLKCLIMCNELLKHLSLSKGLGGTLNEICESLILPGITNVHPSVRNMAVLCIGCCALQNKDFARQHLPLLLQILQLDEVKVKNSALNAVFDMLLLFGMDILKSKPTNPDDSQCKAQENADEDISEQEKPGSVDENLTNEEVQEETATVNGILHLFSGFLDSEIAEIRTETAEGLVKLMFSGRLISAKLLSRLILLWYNPVTEEDTKLRHCLGVFFPIFAYSCRSNQECFAEAFLPTLQTLFNAPASSPLADVDVANVAELLVDLTRPSGLNPQNKQSQDYQAAMVHDGLAIKICNEILKDPTAPDVRIYAKALCSLELSRENSTDLLPLLDCAVEDVTDKVCERAIEKVRSQLRSGREEHRVSKETEPQVSKETEDRTNLQENEEGKQKDEANCDENTDTVKEKAARGKATKGRRKGPAAAATRRKASKAEEAEAEMERQEESQCVPVNTRPSRRAKTAALEKTKKNLSKLLNEEAN

binding: binds
B5: Xenopus laevis condensin I subunit CAP-H, full-length (protein, UniProt O13067 1-699)
chain: MSTSTPQSGGRRKPETPDSAFLSPATRPQPISAAATPTLLNFTSNDDERERKLRRMSRVIDLQLSNANSPATAISPAQSRGADTPTSLLPKLNNTQISDHYSTCIKLSQENKITTKNAFGLHLIDYMGDILKHKDSELTNFKVAAGTLDASAKIYAVRVDAVHADVYKVLGGLGKESQATEDTENQETDTGPQDGRKNPKRRKCSYKTIERNLNSINRSETERKSEIDPLFQKAAASFDEFSTAGVFLSTLKCHSYHSELHFDADVKPLSTAEETEPPSPGSMDSTELKSLFLQCVEKRPLCPSLSGFRFMQWNSDAQNENLSLLMDKFKKSDHVFDINAEVEDDFVESEAPVADEFDADVCEGMDAGDIGEFAEHREACRLERKGAQLTQIGNGDIGTMCLQLSSCPGEYSYFSPRTMSMWAGPEHWRFRPRQKASTDSDQQRVKKAKKVFELNFEDDIDFEVHFRKTRAATTLTKSTLESQNKKSTTLPADFHYDPDNIARMSLRPKDRIRKTTVQESVSEPEDDIGDYDYNNPNDTSNFCPALQAADSDDDDGAFLGPESNSAGFSAENQMNITSYGESNLVAGQKVNKIEIQYAKTAKKMDMKRLKSSMWSLLANCPESQEEMPSSKEEIDAALITDEQVFSSVTHGLQKRLPPVMAQNLSVPLAFACLLHLANEKNLKLQGMDDLSDVMIMQDD

binding: binds
B6: Xenopus laevis CAP-H, full-length, S415A (protein, UniProt O13067 1-699)
chain: B5 chain with S415A

— publication doi:10.1101/2025.09.08.674995
